# Earlier results in patent publication US8329230B2, “Natural hair care composition, methods for obtaining the same and use thereof” (priority 2004, dated 2012).
# At least one structure is not confirmed: it was looked up by name or label, or the drawing left a doubt.
# System: bald areas of the scalp
# Conditions: applied to balding spots twice a day; cited from earlier work
smiles,measurement,value
Nc1cc(N2CCCCC2)nc(N)[n+]1[O-] [Minoxidil],regrowth of hair,moderate regrowth of hair on bald areas of the scalp
